Laboratory results published in article PMC12376557.
These are yes or no findings as the source states them, for the method shown. In cells and extracts the contact can be indirect. Some entries that bind do so weakly or less than the wild type. For part of these data: Tags and fused reporters may be left off the sequences shown.

Experiments:
[1] = target: T1, NAT10-Flag (N-acetyltransferase 10, exogenously expressed) (UniProt Q9H0A0); assay: co-IP; KYSE150Luc and KYSE410Luc cells co-transfected with NAT10-Flag and USP39-HA plasmids, with or without G-749 (5 uM); 1 mg total protein, primary antibody overnight at 4 C, beads 6 h; normal IgG as negative control; Western blot
T1 sequence: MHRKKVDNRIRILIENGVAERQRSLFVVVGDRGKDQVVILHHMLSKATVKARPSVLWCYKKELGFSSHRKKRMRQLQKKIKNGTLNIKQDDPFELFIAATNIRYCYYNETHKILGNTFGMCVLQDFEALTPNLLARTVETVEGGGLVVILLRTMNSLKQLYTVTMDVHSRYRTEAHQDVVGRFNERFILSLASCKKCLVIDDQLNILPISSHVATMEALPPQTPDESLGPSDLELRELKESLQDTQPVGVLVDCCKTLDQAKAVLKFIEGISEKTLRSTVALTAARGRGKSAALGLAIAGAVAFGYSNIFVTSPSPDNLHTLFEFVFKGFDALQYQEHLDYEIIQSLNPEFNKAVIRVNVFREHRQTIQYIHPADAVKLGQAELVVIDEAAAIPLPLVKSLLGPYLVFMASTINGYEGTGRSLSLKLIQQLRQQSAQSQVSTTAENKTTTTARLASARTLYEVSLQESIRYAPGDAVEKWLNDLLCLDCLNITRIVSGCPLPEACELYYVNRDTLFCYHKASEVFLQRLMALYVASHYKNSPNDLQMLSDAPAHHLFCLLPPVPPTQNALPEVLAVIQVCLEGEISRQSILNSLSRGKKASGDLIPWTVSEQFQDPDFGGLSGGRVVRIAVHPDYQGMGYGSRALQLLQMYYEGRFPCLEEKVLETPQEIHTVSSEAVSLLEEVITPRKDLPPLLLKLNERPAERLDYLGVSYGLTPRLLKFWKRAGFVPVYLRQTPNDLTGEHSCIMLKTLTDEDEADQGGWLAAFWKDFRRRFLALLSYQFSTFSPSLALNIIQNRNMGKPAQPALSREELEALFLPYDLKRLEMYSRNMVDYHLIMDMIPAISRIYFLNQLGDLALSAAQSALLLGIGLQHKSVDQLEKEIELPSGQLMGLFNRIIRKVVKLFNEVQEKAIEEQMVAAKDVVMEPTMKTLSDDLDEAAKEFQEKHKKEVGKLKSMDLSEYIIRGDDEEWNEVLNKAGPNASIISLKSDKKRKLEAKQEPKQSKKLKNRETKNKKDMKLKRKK

[2] = target: T2, endogenous NAT10 (N-acetyltransferase 10) (human (endogenous in ESCC cell lines)) (UniProt Q9H0A0); assay: co-IP; endogenous NAT10 or USP39 in ESCC cells, with or without G-749; 1 mg total protein, primary antibody overnight at 4 C, beads 6 h; Western blot
T2 sequence: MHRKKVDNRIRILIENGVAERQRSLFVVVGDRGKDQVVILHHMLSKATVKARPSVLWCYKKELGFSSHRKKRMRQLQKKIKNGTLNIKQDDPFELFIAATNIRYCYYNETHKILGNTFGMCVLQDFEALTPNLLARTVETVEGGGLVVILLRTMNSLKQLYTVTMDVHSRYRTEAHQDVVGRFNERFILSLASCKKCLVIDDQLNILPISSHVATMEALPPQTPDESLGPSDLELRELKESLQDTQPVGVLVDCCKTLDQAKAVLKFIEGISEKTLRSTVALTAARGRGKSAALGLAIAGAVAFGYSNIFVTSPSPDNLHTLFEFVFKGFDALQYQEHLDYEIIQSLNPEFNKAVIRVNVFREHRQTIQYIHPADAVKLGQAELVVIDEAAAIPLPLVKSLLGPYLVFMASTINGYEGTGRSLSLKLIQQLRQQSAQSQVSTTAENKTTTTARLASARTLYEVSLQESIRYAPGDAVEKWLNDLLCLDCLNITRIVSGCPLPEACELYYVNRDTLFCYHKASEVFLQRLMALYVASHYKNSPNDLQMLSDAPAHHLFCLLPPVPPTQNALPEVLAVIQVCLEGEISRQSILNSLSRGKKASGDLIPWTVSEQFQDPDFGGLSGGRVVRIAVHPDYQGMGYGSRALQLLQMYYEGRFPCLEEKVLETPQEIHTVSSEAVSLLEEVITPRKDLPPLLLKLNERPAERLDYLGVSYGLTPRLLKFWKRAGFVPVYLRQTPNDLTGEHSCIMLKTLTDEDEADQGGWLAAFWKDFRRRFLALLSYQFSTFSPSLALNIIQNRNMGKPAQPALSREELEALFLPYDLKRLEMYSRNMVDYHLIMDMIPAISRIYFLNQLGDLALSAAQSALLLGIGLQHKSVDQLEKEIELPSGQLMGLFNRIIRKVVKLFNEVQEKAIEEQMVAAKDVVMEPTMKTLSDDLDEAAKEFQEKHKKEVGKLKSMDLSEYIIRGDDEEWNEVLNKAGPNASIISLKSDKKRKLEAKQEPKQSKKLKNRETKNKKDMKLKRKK

[3] = target: T3, GST-NAT10 (full-length NAT10, recombinant) (UniProt Q9H0A0); assay: pull-down; 10 ug GST-NAT10 protein on glutathione beads, 1 mg total protein from ESCC cells (KYSE150Luc or KYSE410Luc), with or without 5 uM G-749, incubated overnight in vitro; Western blot; only the target purified
T3 sequence: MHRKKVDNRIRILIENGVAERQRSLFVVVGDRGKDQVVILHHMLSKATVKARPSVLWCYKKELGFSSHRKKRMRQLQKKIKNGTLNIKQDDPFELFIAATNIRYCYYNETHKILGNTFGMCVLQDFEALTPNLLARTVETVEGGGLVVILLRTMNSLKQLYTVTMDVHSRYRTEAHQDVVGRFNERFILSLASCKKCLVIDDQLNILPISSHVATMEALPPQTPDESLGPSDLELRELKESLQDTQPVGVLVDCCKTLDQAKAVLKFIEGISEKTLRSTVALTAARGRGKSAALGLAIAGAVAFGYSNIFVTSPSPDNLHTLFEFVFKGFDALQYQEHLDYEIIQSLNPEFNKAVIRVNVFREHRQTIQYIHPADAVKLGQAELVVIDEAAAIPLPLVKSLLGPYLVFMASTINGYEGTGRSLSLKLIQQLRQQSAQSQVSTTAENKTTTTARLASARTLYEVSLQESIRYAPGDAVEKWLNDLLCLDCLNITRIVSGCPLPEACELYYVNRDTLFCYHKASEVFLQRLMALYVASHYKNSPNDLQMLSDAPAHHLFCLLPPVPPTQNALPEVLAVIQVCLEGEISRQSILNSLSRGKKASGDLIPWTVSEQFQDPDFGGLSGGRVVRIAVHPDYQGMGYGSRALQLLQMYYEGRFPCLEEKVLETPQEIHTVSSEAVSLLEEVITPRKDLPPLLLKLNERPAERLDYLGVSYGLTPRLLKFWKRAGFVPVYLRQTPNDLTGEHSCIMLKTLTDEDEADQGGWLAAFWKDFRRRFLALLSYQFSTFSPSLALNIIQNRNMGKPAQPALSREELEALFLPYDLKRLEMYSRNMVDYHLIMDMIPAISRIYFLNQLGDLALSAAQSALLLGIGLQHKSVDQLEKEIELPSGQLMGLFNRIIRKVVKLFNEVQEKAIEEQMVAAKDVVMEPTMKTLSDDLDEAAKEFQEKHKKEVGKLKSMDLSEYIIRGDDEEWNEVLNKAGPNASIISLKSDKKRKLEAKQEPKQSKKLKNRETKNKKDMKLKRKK

B1: USP39-HA (Ubiquitin-specific Peptidase 39, exogenously expressed) (enzyme, UniProt Q53GS9 1-565)
chain: MSGRSKRESRGSTRGKRESESRGSSGRVKRERDREREPEAASSRGSPVRVKREFEPASAREAPASVVPFVRVKREREVDEDSEPEREVRAKNGRVDSEDRRSRHCPYLDTINRSVLDFDFEKLCSISLSHINAYACLVCGKYFQGRGLKSHAYIHSVQFSHHVFLNLHTLKFYCLPDNYEIIDSSLEDITYVLKPTFTKQQIANLDKQAKLSRAYDGTTYLPGIVGLNNIKANDYANAVLQALSNVPPLRNYFLEEDNYKNIKRPPGDIMFLLVQRFGELMRKLWNPRNFKAHVSPHEMLQAVVLCSKKTFQITKQGDGVDFLSWFLNALHSALGGTKKKKKTIVTDVFQGSMRIFTKKLPHPDLPAEEKEQLLHNDEYQETMVESTFMYLTLDLPTAPLYKDEKEQLIIPQVPLFNILAKFNGITEKEYKTYKENFLKRFQLTKLPPYLIFCIKRFTKNNFFVEKNPTIVNFPITNVDLREYLSEEVQAVHKNTTYDLIANIVHDGKPSEGSYRIHVLHHGTGKWYELQDLQVTDILPQMITLSEAYIQIWKRRDNDETNQQGA
binding [1]: binds

B2: endogenous USP39 (Ubiquitin-specific Peptidase 39) (enzyme, UniProt Q53GS9 1-565)
chain: MSGRSKRESRGSTRGKRESESRGSSGRVKRERDREREPEAASSRGSPVRVKREFEPASAREAPASVVPFVRVKREREVDEDSEPEREVRAKNGRVDSEDRRSRHCPYLDTINRSVLDFDFEKLCSISLSHINAYACLVCGKYFQGRGLKSHAYIHSVQFSHHVFLNLHTLKFYCLPDNYEIIDSSLEDITYVLKPTFTKQQIANLDKQAKLSRAYDGTTYLPGIVGLNNIKANDYANAVLQALSNVPPLRNYFLEEDNYKNIKRPPGDIMFLLVQRFGELMRKLWNPRNFKAHVSPHEMLQAVVLCSKKTFQITKQGDGVDFLSWFLNALHSALGGTKKKKKTIVTDVFQGSMRIFTKKLPHPDLPAEEKEQLLHNDEYQETMVESTFMYLTLDLPTAPLYKDEKEQLIIPQVPLFNILAKFNGITEKEYKTYKENFLKRFQLTKLPPYLIFCIKRFTKNNFFVEKNPTIVNFPITNVDLREYLSEEVQAVHKNTTYDLIANIVHDGKPSEGSYRIHVLHHGTGKWYELQDLQVTDILPQMITLSEAYIQIWKRRDNDETNQQGA
binding [2]: binds | binding [3]: binds
